PubChem BioAssay AID493246 – Drosophila RNAi Screening Center | 2011

- Test: 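Identify essential fly genes by loss of cell viability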 (primary screen)
- Cells: Drosophila Kc and S2R+ cells
- Reagents: long dsRNA against Drosophila genes
- Read-out: 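Raw, unnormalised count of remaining cells in each well; per-plate z-scores of cell number underlie the calls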
- Scale: Kc cell number and S2R+ cell number: higher = more cells remaining
- Hit rule: 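Counted as a hit if cell number falls by a z-score of at least 3 within its plate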
The screen tested about 21,000 reagents; below is a random part of those that have a named target and a result. In the full data, 429 (2%) were called active. 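Values are raw and not normalised between plates; calls rest on per-plate z-scores that were not deposited.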 Names joined by + are all predicted targets of the reagent. Not stated in the record: the amount of reagent, the time to read-out.

no.	target	dsRNA	Kc cell number, rep 1	Kc cell number, rep 2	S2R+ cell number, rep 1	S2R+ cell number, rep 2	outcome
1	Bap60	DRSC19337	4.67e5		9.57e5		inactive
2	Pcyt1	DRSC08157	1.40e6	1.45e6	1.10e6	1.12e6	inactive
3	Nrt	DRSC11237	1.59e6	1.56e6	1.17e6	1.26e6	inactive
4	pdgy	DRSC19064	1.39e6	1.75e6	1.12e6	1.25e6	inactive
5	pdgy	DRSC19341	5.85e5		7.95e5		inactive
6	peg	DRSC15216	1.21e6	1.30e6	1.11e6	1.13e6	inactive
7	EndoGI	DRSC01964	1.53e6	1.66e6	1.32e6	1.41e6	inactive
8	Lar	DRSC01707	1.51e6	1.53e6	9.47e5	1.16e6	inactive
9	Lar	DRSC03361	1.38e6	1.42e6	1.34e6	1.41e6	inactive
10	Nep3	DRSC20685	1.45e6	1.46e6	1.07e6	1.07e6	inactive
11	galla-2	DRSC10936	1.56e6	1.56e6	1.05e6	1.16e6	inactive
12	CG3817	DRSC15515	1.46e6	1.52e6	1.02e6	1.17e6	inactive
13	Nf-YB	DRSC02057	1.52e6	1.66e6	1.40e6	3.83e5	inactive
14	CG1724	DRSC20548	1.56e6	1.55e6	1.15e6	1.38e6	inactive
15	CG11384	DRSC18628	1.70e6	1.79e6	1.12e6	1.27e6	inactive
16	Orc2	DRSC16776	1.46e6	1.49e6	1.18e6	1.24e6	inactive
17	beat-IIa	DRSC14813	1.24e6	1.28e6	1.12e6	1.30e6	inactive
18	beat-IIa	DRSC14814	1.27e6	1.46e6	1.09e6	1.24e6	inactive
19	Creld	DRSC00308	1.60e6	1.59e6	1.06e6	1.23e6	inactive
20	Papst2	DRSC10924	1.47e6	1.52e6	1.28e6	1.31e6	inactive
21	CG9154	DRSC03150	1.33e6	1.32e6	6.66e5	9.54e5	inactive
22	CG14787	DRSC18606	1.57e6	1.58e6	8.87e5	1.04e6	inactive
23	CG3430	DRSC02713	1.28e6	1.33e6	5.70e5	8.53e5	inactive
24	mei-38	DRSC18564	1.51e6	1.50e6	1.00e6	1.09e6	inactive
25	mRpL43	DRSC04508	1.53e6	1.46e6	9.36e5	1.12e6	inactive
26	CG4377	DRSC04467	1.45e6	1.49e6	1.09e6	1.16e6	inactive
27	CG14297	DRSC14776	1.24e6	1.41e6	1.03e6	1.09e6	inactive
28	CG9143	DRSC07338	1.26e6	1.30e6	1.09e6	1.14e6	inactive
29	SLIRP1 + anox	DRSC20542	1.69e6	1.69e6	1.15e6	1.20e6	inactive
30	mora	DRSC16594	1.34e6	1.40e6	9.82e5	1.08e6	inactive
31	bcn92	DRSC18741	1.71e6	1.78e6	1.16e6	1.33e6	inactive
32	Tsp42Eh	DRSC06190	1.55e6	1.58e6	1.25e6	1.28e6	inactive
33	fos28F (retired record)	DRSC03391	1.59e6	1.71e6	1.28e6	1.40e6	inactive
34	Ldaf1	DRSC17963	5.24e5		8.38e5		inactive
35	CG18537	DRSC06764	1.55e6	1.56e6	1.17e6	1.25e6	inactive
36	eEF5	DRSC04681	1.52e6	1.58e6	1.25e6	1.27e6	inactive
37	CG11961	DRSC06099	1.35e6	1.44e6	1.13e6	1.19e6	inactive
38	slow	DRSC08589	1.40e6	1.42e6	1.33e6	1.27e6	inactive
39	slow	DRSC08590	1.63e6	1.49e6	1.10e6	1.19e6	inactive
40	Fum2	DRSC18345	1.43e6	1.45e6	9.57e5	1.06e6	inactive
41	mas	DRSC08720	1.36e6	1.45e6	1.24e6	1.20e6	inactive
42	CG2871	DRSC18230	1.41e6	1.38e6	1.02e6	1.20e6	inactive
43	CG32237	DRSC08312	1.31e6	1.36e6	1.22e6	1.28e6	inactive
44	CG32237	DRSC08315	1.40e6	1.33e6	1.13e6	1.23e6	inactive
45	CG1299	DRSC08300	1.48e6	1.56e6	1.09e6	1.36e6	inactive
46	e(y)2b	DRSC12556	1.32e6	1.34e6	1.31e6	1.38e6	inactive
47	Lsm12a	DRSC19702	1.79e6	1.90e6	1.13e6	1.24e6	inactive
48	LSm7	DRSC02251	1.48e6	1.50e6	1.20e6	1.32e6	inactive
49	Vdup1	DRSC08586	1.30e6	1.00e6	1.05e6	1.16e6	inactive
50	Mec2	DRSC20054	1.69e6	1.71e6	1.11e6	1.23e6	inactive
51	CG18265	DRSC10310	1.39e6	1.44e6	1.23e6	1.27e6	inactive
52	CG17687	DRSC10279	1.21e6	1.26e6	1.20e6	1.31e6	inactive
53	SRPK	DRSC07090	1.07e6	1.06e6	8.40e5	6.28e5	inactive
54	tHMG1	DRSC16181	1.24e6	1.22e6	1.03e6	8.96e5	inactive
55	THG	DRSC01896	1.52e6	1.59e6	1.22e6	1.38e6	inactive
56	CG3323	DRSC18303	1.55e6	1.57e6	1.15e6	1.18e6	inactive
57	Kots	DRSC16581	1.54e6	1.56e6	1.20e6	1.23e6	inactive
58	CG32032	DRSC08961	1.59e6	1.72e6	1.11e6	1.26e6	inactive
59	CG15635	DRSC00470	1.59e6	1.55e6	1.09e6	1.17e6	inactive
